From publication PMC6303367
No constants are given. Whether binding was seen depends on the method and setting. Sequences can lack the tags named with a protein.

Amino acid sequences for entries named in this document (tags omitted). A change or cut given only in a name is not applied to a line headed by its entry.
UniProt P04050: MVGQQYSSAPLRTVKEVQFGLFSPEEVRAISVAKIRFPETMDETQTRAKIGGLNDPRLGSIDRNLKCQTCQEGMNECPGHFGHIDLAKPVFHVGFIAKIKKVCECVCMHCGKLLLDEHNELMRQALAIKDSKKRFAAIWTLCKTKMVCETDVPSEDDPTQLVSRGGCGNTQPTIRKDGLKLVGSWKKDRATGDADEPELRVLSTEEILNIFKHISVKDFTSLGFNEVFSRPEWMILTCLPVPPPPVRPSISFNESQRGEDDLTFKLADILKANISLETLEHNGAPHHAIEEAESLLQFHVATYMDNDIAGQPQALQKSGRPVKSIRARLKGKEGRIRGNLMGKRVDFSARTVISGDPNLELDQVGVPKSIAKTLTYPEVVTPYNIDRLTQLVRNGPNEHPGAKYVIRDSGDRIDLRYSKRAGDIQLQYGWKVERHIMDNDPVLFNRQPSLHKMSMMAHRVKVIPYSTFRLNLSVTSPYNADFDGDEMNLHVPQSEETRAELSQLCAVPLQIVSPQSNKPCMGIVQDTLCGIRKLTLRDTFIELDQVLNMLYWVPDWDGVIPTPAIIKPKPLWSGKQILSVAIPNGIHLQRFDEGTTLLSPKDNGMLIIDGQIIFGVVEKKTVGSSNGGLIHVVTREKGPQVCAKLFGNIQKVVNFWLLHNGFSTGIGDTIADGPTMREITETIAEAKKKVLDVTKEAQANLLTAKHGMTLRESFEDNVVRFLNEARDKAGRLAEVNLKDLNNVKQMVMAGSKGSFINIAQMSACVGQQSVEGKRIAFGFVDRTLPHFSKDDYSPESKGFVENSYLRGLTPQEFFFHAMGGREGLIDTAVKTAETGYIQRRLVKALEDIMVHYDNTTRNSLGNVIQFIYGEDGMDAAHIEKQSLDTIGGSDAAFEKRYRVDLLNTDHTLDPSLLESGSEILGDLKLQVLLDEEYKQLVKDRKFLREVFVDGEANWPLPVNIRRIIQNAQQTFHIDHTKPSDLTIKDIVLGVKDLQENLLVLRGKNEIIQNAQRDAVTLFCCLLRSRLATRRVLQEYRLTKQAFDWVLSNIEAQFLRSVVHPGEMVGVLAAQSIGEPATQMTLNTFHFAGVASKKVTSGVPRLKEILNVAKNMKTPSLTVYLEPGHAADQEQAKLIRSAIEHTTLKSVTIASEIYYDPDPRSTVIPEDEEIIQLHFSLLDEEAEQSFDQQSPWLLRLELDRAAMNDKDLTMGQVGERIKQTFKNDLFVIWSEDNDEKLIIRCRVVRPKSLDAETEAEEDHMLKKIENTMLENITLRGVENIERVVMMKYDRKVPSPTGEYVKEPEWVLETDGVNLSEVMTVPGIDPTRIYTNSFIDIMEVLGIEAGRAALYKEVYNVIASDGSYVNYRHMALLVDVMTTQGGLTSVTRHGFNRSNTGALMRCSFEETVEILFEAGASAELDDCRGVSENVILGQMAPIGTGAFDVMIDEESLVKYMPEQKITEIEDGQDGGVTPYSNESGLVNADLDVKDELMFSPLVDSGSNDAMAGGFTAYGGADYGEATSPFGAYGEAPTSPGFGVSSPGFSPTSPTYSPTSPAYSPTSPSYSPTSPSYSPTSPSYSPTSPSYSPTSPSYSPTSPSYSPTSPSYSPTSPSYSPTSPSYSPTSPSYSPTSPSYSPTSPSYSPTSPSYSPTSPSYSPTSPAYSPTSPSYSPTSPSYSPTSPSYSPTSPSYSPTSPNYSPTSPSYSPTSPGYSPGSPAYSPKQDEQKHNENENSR

Target: Saccharomyces cerevisiae RNA polymerase II (Saccharomyces cerevisiae) (UniProt P04050)
Experiment: SEC; Pol II-extended NCP-RNA complex incubated with TFIIS (1:0.57, relative to Pol II) and 1 mM NTPs for 30 min at 30 °C, then Superose 6 Increase 3.2/300 in 100 mM NaCl, 3 mM MgCl2, 20 mM Na·HEPES pH 7.5, 4% (v/v) glycerol, 1 mM DTT; peak fractions analysed by SDS-PAGE; both purified

binding: no binding
B1: S. cerevisiae TFIIS with an N-terminal GST tag (protein, UniProt P07273 1-309)
chain: MDSKEVLVHVKNLEKNKSNDAAVLEILHVLDKEFVPTEKLLRETKVGVEVNKFKKSTNVEISKLVKKMISSWKDAINKNKRSRQAQQHHQDHAPGNAEDKTTVGESVNGVQQPASSQSDAMKQDKYVSTKPRNSKNDGVDTAIYHHKLRDQVLKALYDVLAKESEHPPQSILHTAKAIESEMNKVNNCDTNEAAYKARYRIIYSNVISKNNPDLKHKIANGDITPEFLATCDAKDLAPAPLKQKIEEIAKQNLYNAQGATIERSVTDRFTCGKCKEKKVSYYQLQTRSADEPLTTFCTCEACGNRWKFS
